The target in assay [1] is TAP-tagged Brr2 WT (S. cerevisiae) (UniProt P32639). Nature of the assay: affinity purification with mass spectrometry; TAP-tagged Brr2 pulled down from yeast extract on IgG resin in YEB (40 mM HEPES pH7.9, 200 mM NaCl, 1.5 mM MgCl2, 0.01% NP40), 4°C, eluted by TEV cleavage, LC-MS/MS; two independent pull down experiments.
Assay [2] deals with TAP-tagged Brr2-Δ120 (S. cerevisiae) (UniProt P32639). The assay is described as above.

Sequences of proteins named here, by UniProt entry; tags and fusion partners are left off. A change or cut given only in a name is not applied to a line headed by its entry. A line that says so, or that is headed by a name, gives the form on record, which may keep a tag or linker.
UniProt P32639: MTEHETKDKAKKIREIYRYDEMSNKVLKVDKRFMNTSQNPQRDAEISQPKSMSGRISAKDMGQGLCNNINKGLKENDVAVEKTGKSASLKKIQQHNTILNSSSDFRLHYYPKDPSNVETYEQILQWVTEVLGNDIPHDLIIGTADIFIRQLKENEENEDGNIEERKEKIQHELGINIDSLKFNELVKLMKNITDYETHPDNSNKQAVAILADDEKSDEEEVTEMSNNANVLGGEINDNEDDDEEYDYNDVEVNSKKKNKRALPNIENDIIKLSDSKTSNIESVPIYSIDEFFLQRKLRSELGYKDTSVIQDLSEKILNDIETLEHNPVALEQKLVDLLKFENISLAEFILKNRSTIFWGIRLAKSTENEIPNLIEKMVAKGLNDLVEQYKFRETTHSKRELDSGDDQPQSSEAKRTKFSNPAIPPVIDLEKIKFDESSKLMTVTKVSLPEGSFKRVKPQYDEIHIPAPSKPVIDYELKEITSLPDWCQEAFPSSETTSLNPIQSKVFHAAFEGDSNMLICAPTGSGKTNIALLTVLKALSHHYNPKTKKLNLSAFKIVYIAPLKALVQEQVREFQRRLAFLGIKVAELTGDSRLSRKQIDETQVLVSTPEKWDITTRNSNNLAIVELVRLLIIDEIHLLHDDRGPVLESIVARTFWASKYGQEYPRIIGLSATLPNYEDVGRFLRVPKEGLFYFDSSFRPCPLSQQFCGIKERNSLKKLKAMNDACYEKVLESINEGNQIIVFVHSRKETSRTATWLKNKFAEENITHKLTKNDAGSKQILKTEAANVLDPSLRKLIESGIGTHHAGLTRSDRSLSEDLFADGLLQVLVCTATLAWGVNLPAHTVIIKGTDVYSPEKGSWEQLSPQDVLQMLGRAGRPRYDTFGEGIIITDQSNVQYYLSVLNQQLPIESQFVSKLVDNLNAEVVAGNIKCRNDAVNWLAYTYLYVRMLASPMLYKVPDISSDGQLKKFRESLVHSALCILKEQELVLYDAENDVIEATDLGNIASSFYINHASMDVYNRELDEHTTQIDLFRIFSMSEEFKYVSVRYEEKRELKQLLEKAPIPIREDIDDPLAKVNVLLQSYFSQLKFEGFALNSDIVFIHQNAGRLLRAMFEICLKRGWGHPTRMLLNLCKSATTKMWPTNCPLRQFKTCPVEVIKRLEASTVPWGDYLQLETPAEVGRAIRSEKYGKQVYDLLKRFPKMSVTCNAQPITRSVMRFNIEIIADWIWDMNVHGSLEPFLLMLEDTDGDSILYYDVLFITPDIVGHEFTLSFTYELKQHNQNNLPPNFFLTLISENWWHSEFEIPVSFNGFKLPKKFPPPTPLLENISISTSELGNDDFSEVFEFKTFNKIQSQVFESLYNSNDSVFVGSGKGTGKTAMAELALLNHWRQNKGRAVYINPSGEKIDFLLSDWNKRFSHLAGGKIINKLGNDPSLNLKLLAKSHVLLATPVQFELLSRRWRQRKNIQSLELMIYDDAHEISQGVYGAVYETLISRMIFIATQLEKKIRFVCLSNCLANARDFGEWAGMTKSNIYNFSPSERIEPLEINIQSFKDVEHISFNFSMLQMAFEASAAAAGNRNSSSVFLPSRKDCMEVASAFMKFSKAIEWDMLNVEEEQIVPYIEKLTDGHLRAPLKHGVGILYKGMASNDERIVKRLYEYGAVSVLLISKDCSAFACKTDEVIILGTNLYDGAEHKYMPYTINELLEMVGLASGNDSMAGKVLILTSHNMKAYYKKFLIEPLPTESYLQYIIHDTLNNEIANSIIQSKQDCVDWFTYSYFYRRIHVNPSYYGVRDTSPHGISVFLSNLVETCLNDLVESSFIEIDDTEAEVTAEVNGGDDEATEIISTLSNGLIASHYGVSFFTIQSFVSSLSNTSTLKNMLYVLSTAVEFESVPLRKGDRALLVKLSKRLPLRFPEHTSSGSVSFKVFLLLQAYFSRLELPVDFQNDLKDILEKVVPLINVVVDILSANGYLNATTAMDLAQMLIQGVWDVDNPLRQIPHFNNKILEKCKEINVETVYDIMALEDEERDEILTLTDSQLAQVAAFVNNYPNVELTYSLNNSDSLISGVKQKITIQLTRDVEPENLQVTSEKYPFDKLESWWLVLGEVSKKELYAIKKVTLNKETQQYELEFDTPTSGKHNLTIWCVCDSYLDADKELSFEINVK
TAP-tagged Brr2-Δ120 (P32639, form named): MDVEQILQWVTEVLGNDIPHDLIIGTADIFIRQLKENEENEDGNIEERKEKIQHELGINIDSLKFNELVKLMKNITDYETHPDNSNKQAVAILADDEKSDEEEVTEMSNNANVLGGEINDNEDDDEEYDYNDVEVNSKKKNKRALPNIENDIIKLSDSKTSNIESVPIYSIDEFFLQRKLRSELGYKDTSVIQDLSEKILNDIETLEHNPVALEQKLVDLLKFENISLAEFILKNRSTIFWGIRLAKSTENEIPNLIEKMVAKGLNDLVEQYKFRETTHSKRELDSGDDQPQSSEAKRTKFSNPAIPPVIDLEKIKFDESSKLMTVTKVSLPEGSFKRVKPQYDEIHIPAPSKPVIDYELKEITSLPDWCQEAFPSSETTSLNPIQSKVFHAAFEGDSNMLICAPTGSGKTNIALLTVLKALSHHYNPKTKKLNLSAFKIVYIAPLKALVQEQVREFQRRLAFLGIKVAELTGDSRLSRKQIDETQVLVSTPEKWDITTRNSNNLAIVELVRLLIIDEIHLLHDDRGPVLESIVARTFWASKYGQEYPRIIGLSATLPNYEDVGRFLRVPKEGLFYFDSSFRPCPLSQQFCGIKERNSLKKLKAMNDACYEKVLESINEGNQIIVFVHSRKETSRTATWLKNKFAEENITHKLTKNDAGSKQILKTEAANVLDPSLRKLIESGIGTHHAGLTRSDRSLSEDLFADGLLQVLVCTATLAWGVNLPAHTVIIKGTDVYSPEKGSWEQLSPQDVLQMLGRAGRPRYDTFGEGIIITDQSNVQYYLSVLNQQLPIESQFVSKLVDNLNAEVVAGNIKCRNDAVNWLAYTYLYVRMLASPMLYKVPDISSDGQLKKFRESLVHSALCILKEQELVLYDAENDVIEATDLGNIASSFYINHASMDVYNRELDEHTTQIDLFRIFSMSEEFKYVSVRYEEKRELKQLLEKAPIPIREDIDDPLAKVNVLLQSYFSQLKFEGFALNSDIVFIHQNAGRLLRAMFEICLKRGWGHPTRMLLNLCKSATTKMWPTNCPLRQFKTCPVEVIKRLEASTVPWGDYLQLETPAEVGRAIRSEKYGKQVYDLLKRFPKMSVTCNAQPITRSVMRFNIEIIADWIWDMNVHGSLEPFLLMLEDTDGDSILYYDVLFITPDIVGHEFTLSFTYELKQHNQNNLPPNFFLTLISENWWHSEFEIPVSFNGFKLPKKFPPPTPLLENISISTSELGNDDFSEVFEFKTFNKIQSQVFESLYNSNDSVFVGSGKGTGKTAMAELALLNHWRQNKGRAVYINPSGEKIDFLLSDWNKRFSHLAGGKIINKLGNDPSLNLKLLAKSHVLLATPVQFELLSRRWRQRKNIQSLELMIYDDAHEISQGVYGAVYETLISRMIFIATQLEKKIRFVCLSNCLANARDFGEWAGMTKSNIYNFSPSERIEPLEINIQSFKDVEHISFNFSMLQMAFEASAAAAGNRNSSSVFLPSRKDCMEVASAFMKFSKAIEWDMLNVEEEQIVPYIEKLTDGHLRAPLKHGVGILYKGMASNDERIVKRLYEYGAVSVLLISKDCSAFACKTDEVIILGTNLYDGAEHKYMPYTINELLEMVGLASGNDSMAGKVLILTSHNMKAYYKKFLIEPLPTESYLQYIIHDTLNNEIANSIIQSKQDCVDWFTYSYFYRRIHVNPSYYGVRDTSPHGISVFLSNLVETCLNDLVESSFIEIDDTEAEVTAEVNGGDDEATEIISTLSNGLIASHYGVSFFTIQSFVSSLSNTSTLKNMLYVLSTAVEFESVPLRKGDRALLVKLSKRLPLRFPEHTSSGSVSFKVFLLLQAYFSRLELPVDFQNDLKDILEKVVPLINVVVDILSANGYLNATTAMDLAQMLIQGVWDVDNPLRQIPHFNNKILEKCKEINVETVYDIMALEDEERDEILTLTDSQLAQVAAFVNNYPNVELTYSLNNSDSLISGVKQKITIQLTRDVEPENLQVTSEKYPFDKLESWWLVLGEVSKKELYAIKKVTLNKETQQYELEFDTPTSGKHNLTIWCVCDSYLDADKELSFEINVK
UniProt Q04693: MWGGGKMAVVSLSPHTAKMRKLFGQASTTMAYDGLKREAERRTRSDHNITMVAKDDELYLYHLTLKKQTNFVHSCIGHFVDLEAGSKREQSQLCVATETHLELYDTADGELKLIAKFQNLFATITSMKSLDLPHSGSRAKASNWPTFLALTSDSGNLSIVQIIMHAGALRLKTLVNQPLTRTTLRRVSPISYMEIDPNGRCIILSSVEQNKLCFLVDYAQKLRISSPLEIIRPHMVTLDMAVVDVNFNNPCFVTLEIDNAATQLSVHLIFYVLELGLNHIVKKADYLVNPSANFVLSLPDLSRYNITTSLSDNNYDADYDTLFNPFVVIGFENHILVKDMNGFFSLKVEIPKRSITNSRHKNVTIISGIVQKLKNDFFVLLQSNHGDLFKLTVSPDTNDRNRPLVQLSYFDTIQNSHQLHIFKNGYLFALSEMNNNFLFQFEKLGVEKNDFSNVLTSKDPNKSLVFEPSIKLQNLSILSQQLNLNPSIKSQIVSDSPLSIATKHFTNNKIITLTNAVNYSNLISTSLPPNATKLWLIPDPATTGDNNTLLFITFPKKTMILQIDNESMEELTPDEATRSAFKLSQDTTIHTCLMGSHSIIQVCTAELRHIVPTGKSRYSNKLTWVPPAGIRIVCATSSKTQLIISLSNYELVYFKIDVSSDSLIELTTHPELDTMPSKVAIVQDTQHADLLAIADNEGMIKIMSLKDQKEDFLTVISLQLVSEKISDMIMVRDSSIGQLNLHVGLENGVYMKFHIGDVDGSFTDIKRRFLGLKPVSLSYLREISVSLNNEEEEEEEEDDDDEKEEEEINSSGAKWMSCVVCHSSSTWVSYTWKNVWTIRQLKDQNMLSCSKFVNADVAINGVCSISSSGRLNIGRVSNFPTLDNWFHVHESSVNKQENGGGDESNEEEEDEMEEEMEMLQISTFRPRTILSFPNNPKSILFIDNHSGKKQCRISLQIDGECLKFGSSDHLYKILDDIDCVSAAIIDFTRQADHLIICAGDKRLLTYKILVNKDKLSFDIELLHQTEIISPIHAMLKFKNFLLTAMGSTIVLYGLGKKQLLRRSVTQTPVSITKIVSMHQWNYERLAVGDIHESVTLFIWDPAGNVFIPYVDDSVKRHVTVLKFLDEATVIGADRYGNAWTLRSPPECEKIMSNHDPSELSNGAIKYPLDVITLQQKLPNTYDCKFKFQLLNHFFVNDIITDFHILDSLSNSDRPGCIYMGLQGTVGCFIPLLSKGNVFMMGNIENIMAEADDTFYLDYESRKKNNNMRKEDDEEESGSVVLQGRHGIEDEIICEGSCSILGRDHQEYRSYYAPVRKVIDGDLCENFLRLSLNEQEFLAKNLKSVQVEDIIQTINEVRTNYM
UniProt P32523: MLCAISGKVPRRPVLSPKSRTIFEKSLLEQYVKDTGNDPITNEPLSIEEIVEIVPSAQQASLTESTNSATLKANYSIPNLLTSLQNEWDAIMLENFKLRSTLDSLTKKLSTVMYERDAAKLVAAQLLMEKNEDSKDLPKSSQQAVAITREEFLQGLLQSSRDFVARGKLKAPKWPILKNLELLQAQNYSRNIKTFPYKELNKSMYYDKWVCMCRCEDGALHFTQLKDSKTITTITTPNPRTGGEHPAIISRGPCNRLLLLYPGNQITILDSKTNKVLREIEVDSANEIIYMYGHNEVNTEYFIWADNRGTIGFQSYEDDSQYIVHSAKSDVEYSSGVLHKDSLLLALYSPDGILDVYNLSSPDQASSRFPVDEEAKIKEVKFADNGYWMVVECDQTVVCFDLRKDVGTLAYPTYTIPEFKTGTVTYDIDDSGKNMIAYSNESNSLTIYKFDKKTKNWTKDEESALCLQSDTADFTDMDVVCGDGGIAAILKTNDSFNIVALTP
UniProt Q00723: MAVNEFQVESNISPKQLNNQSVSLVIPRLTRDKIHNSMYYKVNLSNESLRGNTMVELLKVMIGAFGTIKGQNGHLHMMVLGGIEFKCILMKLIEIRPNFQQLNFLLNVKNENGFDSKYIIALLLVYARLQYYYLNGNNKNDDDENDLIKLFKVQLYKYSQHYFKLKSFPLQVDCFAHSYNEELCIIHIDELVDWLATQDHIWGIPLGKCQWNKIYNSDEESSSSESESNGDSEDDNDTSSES
UniProt P32524: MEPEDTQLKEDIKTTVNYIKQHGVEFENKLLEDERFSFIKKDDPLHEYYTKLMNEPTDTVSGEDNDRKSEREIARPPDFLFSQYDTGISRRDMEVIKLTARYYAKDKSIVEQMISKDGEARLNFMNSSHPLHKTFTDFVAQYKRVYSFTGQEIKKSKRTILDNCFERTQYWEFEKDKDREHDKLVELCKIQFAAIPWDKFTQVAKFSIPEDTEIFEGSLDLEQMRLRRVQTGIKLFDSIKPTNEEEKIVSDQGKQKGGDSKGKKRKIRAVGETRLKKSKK

No constants are given. Whether binding was seen depends on the method and setting. Binding seen in cells or lysates may run through a third protein. A yes stands for co-enrichment or nearness to the bait. Other partners may have been found.

For the molecule SPP381 (from UniProt P38282 1-291), the binding entry in assay [1] and in assay [2] was “binds” each time.

Take RSE1 (from UniProt Q04693 1-1361): the binding result in assay [1] and in assay [2] was “binds” each time.

Take LEA1 (from UniProt Q08963 1-238): the binding entry in assay [1] and in assay [2] was “binds” in each case.

For SYF1 (from UniProt Q04048 1-859), the binding entry in assay [1] and in assay [2] was “binds” throughout.

Turning to CLF1 (from UniProt Q12309 1-687), the binding result in assay [1] and in assay [2] was “binds” each time.

Snu114 (from UniProt P36048 1-1008): the binding entry in assay [1] and in assay [2] was “binds” each time.

For PRP19 (from UniProt P32523 1-503), the binding entry in assay [1] and in assay [2] was “binds” each time.

For the molecule PRP38 (from UniProt Q00723 1-242), the binding entry in assay [1] and in assay [2] was “binds” each time.

For PRP21 (from UniProt P32524 1-280), the binding result in assay [1] and in assay [2] was “binds” throughout.

As for CEF1 (from UniProt Q03654 1-590), the binding entry in assay [1] and in assay [2] was “binds” each time.

As for HSH155 (from UniProt P49955 1-971), the binding entry in assay [1] and in assay [2] was “binds” throughout.

As to SMF (from UniProt P54999 1-86), the binding result in assay [1] and in assay [2] was “binds” in each case.

B1: LSM8 (protein, UniProt P47093 1-109)
chain: MSATLKDYLNKRVVIIKVDGECLIASLNGFDKNTNLFITNVFNRISKEFICKAQLLRGSEIALVGLIDAENDDSLAPIDEKKVPMLKDTKNKIENEHVIWEKVYESKTK
Turning to B1, the binding entry in assay [1] and in assay [2] was “binds” each time.

B2: DIB1 (protein, UniProt Q06819 1-143)
chain: MASVLLPQLRTGWHVDQAIVTETKRLVVIRFGRKNDRQCMIMDELLSSIAERVRNFAVIYLCDIDEVSDFDEMYELTDPMTVMFFYHNKHMMCDFGTGNNNKLNFIVDDKQEMIDILETIFRGARKNKGLVVSPYDYNHKRVS
Turning to B2, the binding result in assay [1] and in assay [2] was “binds” throughout.

B3: SMG (protein, UniProt P40204 1-77)
chain: MVSTPELKKYMDKKILLNINGSRKVAGILRGYDIFLNVVLDDAMEINGEDPANNHQLGLQTVIRGNSIISLEALDAI
Turning to B3, the binding result in assay [1] and in assay [2] was “binds” in each case.

B4: SMD2 (protein, UniProt Q06217 1-110)
chain: MSSQIIDRPKHELSRAELEELEEFEFKHGPMSLINDAMVTRTPVIISLRNNHKIIARVKAFDRHCNMVLENVKELWTEKKGKNVINRERFISKLFLRGDSVIVVLKTPVE
Regarding B4, the binding entry in assay [1] and in assay [2] was “binds” each time.

B5: LSM2 (protein, UniProt P38203 1-95)
chain: MLFFSFFKTLVDQEVVVELKNDIEIKGTLQSVDQFLNLKLDNISCTDEKKYPHLGSVRNIFIRGSTVRYVYLNKNMVDTNLLQDATRREVMTERK
As to B5, the binding entry in assay [1] and in assay [2] was “binds” in each case.

B6: LSM4 (protein, UniProt P40070 1-187)
chain: MLPLYLLTNAKGQQMQIELKNGEIIQGILTNVDNWMNLTLSNVTEYSEESAINSEDNAESSKAVKLNEIYIRGTFIKFIKLQDNIIDKVKQQINSNNNSNSNGPGHKRYYNNRDSNNNRGNYNRRNNNNGNSNRRPYSQNRQYNNSNSSNINNSINSINSNNQNMNNGLGGSVQHHFNSSSPQKVEF
As for B6, the binding entry in assay [1] and in assay [2] was “binds” throughout.

B7: LSM6 (protein, UniProt Q06406 1-86)
chain: MSGKASTEGSVTTEFLSDIIGKTVNVKLASGLLYSGRLESIDGFMNVALSSATEHYESNNNKLLNKFNSDVFLRGTQVMYISEQKI
With B7, the binding result in assay [1] and in assay [2] was “binds” each time.

B8: SMD3 (protein, UniProt P43321 1-101)
chain: MTMNGIPVKLLNEAQGHIVSLELTTGATYRGKLVESEDSMNVQLRDVIATEPQGAVTHMDQIFVRGSQIKFIVVPDLLKNAPLFKKNSSRPMPPIRGPKRR
Consider B8, for which the binding result in assay [1] and in assay [2] was “binds” throughout.

B9: PRP3 (protein, UniProt Q03338 1-469)
chain: MPPRNTYEKGNPKRQNSPYYKPSFLRREETTNDEEKFQGHGLKTELHSALKSSNLNLIRRTYQTGENPYLSDPHDRGSSSRFNRRYERGLKFYQKGEISKRIAQERTLQKQQEEEELKRKLKQEEDEKDKRKLIESGDLPNLELHEDKFLLDLSKFKIYYDNNHGYEWWDTAYLDEKGELMEKYDMNGTSPAEEKLAEDIDEVDDDDDDEHPSIRYVAHPLPEKINEAKVSIKAYLTQHERKRLRRNRRKMAREAREIKIKLGLLPKPEPKVKLSNMMSVFENDQNITDPTAWEKVVKDQVDLRKRKHLEENERRHEDAIKRRKEAVNMNVEKPTVYHCKVFQFKNLQNPKIRFKLKMNSKELSLKGLCLRIRDDGPGIIIVVGNEKSCKFYENLVMKRIKWNEDFELHTNTGDIKMDMHNNSISKTWEGYLQDCKFKGWFMKVCNDQDSLLRTLGQFDSEHFYSPVQT
For the molecule B9, the binding result in assay [1] and in assay [2] was “binds” each time.

B10: LSM3 (protein, UniProt P57743 1-89)
chain: METPLDLLKLNLDERVYIKLRGARTLVGTLQAFDSHCNIVLSDAVETIYQLNNEELSESERRCEMVFIRGDTVTLISTPSEDDDGAVEI
As for B10, the binding entry in assay [1] and in assay [2] was “binds” throughout.

B11: SMB (protein, UniProt P40018 1-196)
chain: MSKIQVAHSSRLANLIDYKLRVLTQDGRVYIGQLMAFDKHMNLVLNECIEERVPKTQLDKLRPRKDSKDGTTLNIKVEKRVLGLTILRGEQILSTVVEDKPLLSKKERLVRDKKEKKQAQKQTKLRKEKEKKPGKIAKPNTANAKHTSSNSREIAQPSSSRYNGGNDNIGANRSRFNNEAPPQTRKFQPPPGFKRK
Regarding B11, the binding entry in assay [1] and in assay [2] was “binds” in each case.

B12: LSM5 (protein, UniProt P40089 1-93)
chain: MSLPEILPLEVIDKTINQKVLIVLQSNREFEGTLVGFDDFVNVILEDAVEWLIDPEDESRNEKVMQHHGRMLLSGNNIAILVPGGKKTPTEAL
For B12, the binding result in assay [1] and in assay [2] was “binds” in each case.

B13: PRP31 (protein, UniProt P49704 1-494)
chain: MSSEEDYFDELEYDLADEVNEEKEDIQTKKLTTVNCQTEKFNPFEILPESIELFRTLALISPDRLSLSETAQILPKIVDLKRILQQQEIDFIKLLPFFNEIIPLIKSNIKLMHNFLISLYSRRFPELSSLIPSPLQYSKVISILENENYSKNESDELFFHLENKAKLTREQILVLTMSMKTSFKNKEPLDIKTRTQILEANSILENLWKLQEDIGQYIASKISIIAPNVCFLVGPEIAAQLIAHAGGVLEFSRIPSCNIASIGKNKHLSHELHTLESGVRQEGYLFASDMIQKFPVSVHKQMLRMLCAKVSLAARVDAGQKNGDRNTVLAHKWKAELSKKARKLSEAPSISETKALPIPEDQPKKKRAGRKFRKYKEKFRLSHVRQLQNRMEFGKQEQTVLDSYGEEVGLGMSNTSLQQAVGATSGSRRSAGNQAKLTKVMKHRISEANQQADEFLISLGHNTEQPNLSPEMVQMHKKQHTNPEEETNWFSGHG
On to B13, for which the binding result in assay [1] and in assay [2] was “binds” each time.

B14: LSM7 (protein, UniProt P53905 1-115)
chain: MHQQHSKSENKPQQQRKKFEGPKREAILDLAKYKDSKIRVKLMGGKLVIGVLKGYDQLMNLVLDDTVEYMSNPDDENNTELISKNARKLGLTVIRGTILVSLSSAEGSDVLYMQK
With B14, the binding result in assay [1] and in assay [2] was “binds” each time.

B15: SNU66 (protein, UniProt Q12420 1-587)
chain: MNKTENLSIEETNEIREKLGMKPIPVFQEKNTDHKESLSIEETNELRASLGLKLIPPQQNFNSSPPNVHNTSKIDELREKITKFQKKANAPLRMAHLLEETNVNDDSSWLENMDAIPSSHESKRSSTLPRKGATKEDENIDLHNVQVSYNIEALSPKKDTILTLKESSIFDDTDSTEVLENVKAAEENADREKLRLRQMNKDRRQKKKILNVSSLDIEEEEEGEKHSITTTHLIIGAEQGVMKAPNTISAKPPTGKVKVNFDSANNMSDEDGGDFKPLKIKKRKIKDPRSTKARKSKITDKMEIVKLVDEDESLSWMEEEQPVTIINPRTSSNNELKGPEDLAREIEKARDEEKRRTESILKMREISNSIVVDEKVTFLNTLDTSLSERSATENKVKVHGEGEKNIGDVTNGHTKEGSGNNTLTEAVNNEPNYEGDAENAPNFFSGLASTLGYLRKKSVFTTGDVDLKPGKDVNNSESLRRDVRNKEHTGTGTYTKDKLHGLEQFTSSDSSNANTHSKRQDHYDPDIKLVYRDEKGNRLTTKEAYKKLSQKFHGTKSNKKKRAKMKSRIEARKNTPENGSLFEFDDN
For the molecule B15, the binding entry in assay [1] and in assay [2] was “binds” each time.

B16: SME (protein, UniProt Q12330 1-94)
chain: MSNKVKTKAMVPPINCIFNFLQQQTPVTIWLFEQIGIRIKGKIVGFDEFMNVVIDEAVEIPVNSADGKEDVEKGTPLGKILLKGDNITLITSAD
For the molecule B16, the binding result in assay [1] and in assay [2] was “binds” in each case.

For the origin of these results see paper PMC4381053.
